These results are taken from paper PMC10936184.

Chains of the proteins cited; added tags and fusions are not shown. Lines headed by an entry give the natural chain unless they say otherwise; changes in a name come on top.
UniProt P33046: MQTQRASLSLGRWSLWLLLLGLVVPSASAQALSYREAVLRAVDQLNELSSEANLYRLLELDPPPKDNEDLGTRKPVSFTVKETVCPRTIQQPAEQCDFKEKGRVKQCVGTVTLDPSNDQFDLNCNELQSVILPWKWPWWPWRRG

This assay addresses MipA-His6 (Pseudomonas aeruginosa). Nature of the assay: condition: up to 1:4 molar ratio, which corresponds to 25 µM; nano-DSF; thermal shift: pure MipA alone or incubated for 2 h at room temperature with ligand at molar ratios from 1:1 to 1:40 (up to 200 µM), heated from 20°C to 95°C; buffer with 0.1% LAPAO; Tm from F350:F330; both purified. On the technique in general: In DSF a fluorescence change marks the thermal transition of the protein.

These are yes or no findings as the source states them, for the method shown.

With ILPWKWPWWPWRRG (peptide, UniProt P33046 131-144) [indolicidin], the binding entry is given as “no binding”.
